Laboratory results published in publication PMC7767469.
Results are given in words; binding and its absence hold for the method and conditions named. Binding seen in cells or lysates may run through a third protein. Some binding calls cover weakened binding; strength is not graded here.

The chains behind the UniProt entries cited, without tags or fusion partners.
UniProt P35222: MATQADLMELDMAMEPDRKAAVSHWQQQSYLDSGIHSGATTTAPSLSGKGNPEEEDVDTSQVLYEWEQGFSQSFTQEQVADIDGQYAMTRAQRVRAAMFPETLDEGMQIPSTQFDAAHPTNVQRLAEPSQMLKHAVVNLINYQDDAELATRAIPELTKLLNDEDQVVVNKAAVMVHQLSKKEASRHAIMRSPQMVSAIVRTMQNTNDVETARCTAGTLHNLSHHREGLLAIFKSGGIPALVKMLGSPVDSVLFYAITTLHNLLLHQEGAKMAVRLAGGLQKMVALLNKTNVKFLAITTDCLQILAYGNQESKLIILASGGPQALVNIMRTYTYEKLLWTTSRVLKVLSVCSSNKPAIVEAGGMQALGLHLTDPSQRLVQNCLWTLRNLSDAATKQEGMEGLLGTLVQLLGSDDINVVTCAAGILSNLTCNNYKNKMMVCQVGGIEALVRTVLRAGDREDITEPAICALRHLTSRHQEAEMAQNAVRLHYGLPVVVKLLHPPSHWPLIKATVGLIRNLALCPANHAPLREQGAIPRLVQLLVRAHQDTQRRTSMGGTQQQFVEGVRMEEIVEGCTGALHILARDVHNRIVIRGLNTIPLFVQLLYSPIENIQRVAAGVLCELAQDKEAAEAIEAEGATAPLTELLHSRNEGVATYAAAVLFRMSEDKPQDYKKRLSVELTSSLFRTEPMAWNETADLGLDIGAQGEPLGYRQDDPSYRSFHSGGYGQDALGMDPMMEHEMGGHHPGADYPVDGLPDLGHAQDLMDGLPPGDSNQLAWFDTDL
UniProt P98170: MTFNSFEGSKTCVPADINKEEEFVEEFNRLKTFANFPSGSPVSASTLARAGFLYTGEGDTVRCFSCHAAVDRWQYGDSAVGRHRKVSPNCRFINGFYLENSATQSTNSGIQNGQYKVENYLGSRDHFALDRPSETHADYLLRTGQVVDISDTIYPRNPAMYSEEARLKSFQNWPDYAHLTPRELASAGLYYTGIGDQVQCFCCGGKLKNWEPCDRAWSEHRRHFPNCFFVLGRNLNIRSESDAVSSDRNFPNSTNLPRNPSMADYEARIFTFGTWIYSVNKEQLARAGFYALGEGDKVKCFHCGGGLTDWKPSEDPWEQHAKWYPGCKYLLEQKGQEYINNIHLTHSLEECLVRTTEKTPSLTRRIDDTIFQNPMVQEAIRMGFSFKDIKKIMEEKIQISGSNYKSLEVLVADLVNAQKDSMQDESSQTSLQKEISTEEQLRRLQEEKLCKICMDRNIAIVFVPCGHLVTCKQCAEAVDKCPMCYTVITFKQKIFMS

target: T1, Chaperonin-containing TCP-1 subunit β (CCT-β) (human (endogenous in MDA-MB-231 and CL1-5)) (UniProt P78371); test: co-IP; endogenous proteins in MDA-MB-231 and CL1-5 cell lysates; antibodies against CCT-β, β-catenin, XIAP or control IgG, Protein A-agarose; 25 mM Tris-HCl pH 7.6, 200 mM NaCl, 0.1% NP-40, 6% glycerol, 1 mM EDTA, 0.5 mM DTT, 4 °C overnight; western blot
T1 sequence: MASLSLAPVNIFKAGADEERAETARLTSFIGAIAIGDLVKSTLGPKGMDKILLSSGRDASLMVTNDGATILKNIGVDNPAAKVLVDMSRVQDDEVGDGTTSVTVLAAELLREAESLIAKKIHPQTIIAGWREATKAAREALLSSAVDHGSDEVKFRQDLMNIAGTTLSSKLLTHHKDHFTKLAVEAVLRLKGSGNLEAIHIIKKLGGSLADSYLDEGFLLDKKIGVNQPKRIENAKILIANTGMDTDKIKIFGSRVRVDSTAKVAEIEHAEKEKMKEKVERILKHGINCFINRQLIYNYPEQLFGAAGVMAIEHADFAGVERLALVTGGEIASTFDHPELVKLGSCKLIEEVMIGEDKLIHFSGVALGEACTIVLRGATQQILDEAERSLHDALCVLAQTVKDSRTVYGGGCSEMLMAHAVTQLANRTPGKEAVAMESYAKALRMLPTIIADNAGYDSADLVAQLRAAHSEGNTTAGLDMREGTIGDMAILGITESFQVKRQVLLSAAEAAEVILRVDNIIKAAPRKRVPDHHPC

binding, binds:
S675-phosphorylated β-catenin (from UniProt P35222 1-781)
X-linked inhibitor of apoptosis (XIAP) (from UniProt P98170 1-497)
β-catenin (from UniProt P35222 1-781)
